# Counter-ions that a name gives are not always drawn. ± gives the standard deviation of the averaged measurements. This is one part of the list. Baselines shift from plate to plate; read single values as rough.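 The cells are a mouse kidney inner medullary collecting duct line, silenced either for the ciliary gene Rpgrip1l or with a non-targeting control siRNA.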
# Assays:
# [1] = test system: mIMCD3; assay: robust z score of cell number vs plate controls; higher = more cells (less cytotoxic); conditions: 10 µM, 48 h
# [2] = test system: mIMCD3; assay: robust z score of cilia incidence (% cells with single cilium) vs plate controls; higher = more ciliated cells; conditions: 10 µM; 48 h; siRNA: siScr
# [3] = test system: mIMCD3; assay: robust z score of cilia incidence (% cells with single cilium) vs plate controls; higher = more ciliated cells (rescue of cilia loss); conditions: 10 µM; 48 h; siRNA: siRpgrip1l
Compound,robust z score of cell number ([1]; siRNA: siRpgrip1l),robust z score of cell number ([1]; siRNA: siScr),robust z score of cilia incidence [2],robust z score of cilia incidence [3]
CC1(C)CCC(C)(C)c2cc(C3(c4ccc(C(=O)O)cc4)OCCO3)ccc21,-28.8 ± 35,-5.86 ± 0.94,-6.14 ± 9.3,-22 ± 21
CN(C)C(=O)n1nnnc1Cc1ccc(-c2ccccc2)cc1,-29.5 ± 15,-27.3 ± 4.7,-49.6 ± 38,-34.3 ± 19
CC(C)[C@H](CO)Nc1nc(Nc2cccc(Cl)c2)c2ncn(C(C)C)c2n1 [Purvalanol A],-185 ± 210,-43 ± 9.2,-13.4 ± 9.6,-297 ± 230
CC1CCN(CC[C@H]2CCCN2S(=O)(=O)c2cccc(O)c2)CC1,-11.4 ± 16,-2.82 ± 2.2,1.63 ± 3.3,-119 ± 100
CCN(CC)CCOCCOC(=O)C1(c2ccccc2)CCCC1 [Carbetapentane citrate],-97.1 ± 82,-64.9 ± 40,-39.2 ± 2.9,-46.8 ± 24
COc1ccc(CN2C(=O)C(=O)c3cc(OC(F)(F)F)ccc32)cc1,-53.1 ± 51,-28.3 ± 22,-18 ± 11,-24.9 ± 16
Cn1cc(C2=C(c3cn(CCCSC(=N)N)c4ccccc34)C(=O)NC2=O)c2ccccc21 [Ro 31-8220 mesylate],-38.9 ± 24,-54 ± 28,-22.7 ± 12,-41 ± 3.6
CC1CCN=C(N)S1 (stereo not given) [AMT hydrochloride],-1.13 ± 2.8,-1.01 ± 4,-0.743 ± 1.5,-7.8 ± 0.34
CN1CCC(=C2c3ccccc3CC(=O)c3sccc32)CC1 [Ketotifen fumarate],1.08 ± 0.093,-1.67 ± 1.1,-8.04 ± 5.2,-12.4 ± 3.8
OC[C@H]1O[C@@H](n2cnc3c(NC4CCCC4)ncnc32)[C@H](O)[C@@H]1O [N6-Cyclopentyladenosine],-1.77 ± 1.5,-1.9 ± 0.48,-5.54 ± 0.4,-18.8 ± 9.9
CCC(C)N(C)C(=O)c1cc2ccccc2c(-c2ccccc2Cl)n1 (stereo not given),-8.78 ± 7,-9.08 ± 8.4,1.22 ± 1.4,-14.32 ± 0.062
NC(=O)Nc1sc(-c2ccc(F)cc2)cc1C(N)=O,-93.5 ± 67,-124 ± 110,-7.71 ± 1,-26.4 ± 0.3
CCC1(c2ccccc2)C(=O)NCNC1=O [Primidone],-1.27 ± 1.1,-3.53 ± 0.54,0.691 ± 0.77,-3.54 ± 2.4
CNC(=O)c1cc2c(cn1)[nH]c1ccccc12,-8.95 ± 0.61,-2.51 ± 6.8,1.87 ± 0.096,-5.05 ± 5.6
CN(Cc1ccccc1)C(=O)[C@H](Cc1ccc2ccccc2c1)NC(=O)[C@@H]1C[C@@H](O)CN1C(=O)c1cn(C)c2ccccc12,-20.3 ± 10,-14.4 ± 0.42,-7.11 ± 9.9,-18.4 ± 11
C/C=C1\C(=O)C[C@H]2[C@@H]3CCC4=CC(=O)CC[C@]4(C)[C@H]3CC[C@]12C [Guggulsterone],-12.2 ± 4.8,-22 ± 18,-5.94 ± 4.9,-32 ± 18
CC(C)Oc1ccc2c(=O)c3cc(C(=O)O)ccc3oc2c1,-11.7 ± 10,-20.5 ± 14,0.835 ± 2,-6.09 ± 8.6
COc1ccc2cc([C@H](C)C(=O)O)ccc2c1 [Naproxen sodium],0.802 ± 4,-23.2 ± 3.4,0.503 ± 1.4,-9.05 ± 2
Oc1ccc(C2CNCCc3c2cc(O)c(O)c3Cl)cc1 (stereo not given) [Fenoldopam hydrochloride],-13.8 ± 12,-2.69 ± 1.6,0.378 ± 0.53,-145 ± 97
Clc1cccc2c1CN(C1=NCCN1)C2,-1.61 ± 1,-0.98 ± 3.4,1.29 ± 0.74,-7.05 ± 2.2
CN(Cc1ccccc1)C(=O)[C@H](Cc1ccc2ccccc2c1)NC(=O)[C@@H]1CCCN1C(=O)Nc1ccccc1[N+](=O)[O-],-21.3 ± 12,-20.3 ± 4.9,-22.4 ± 18,-27.8 ± 16
CC(C)C1C2CCC(C2)C1N (stereo not given),-10.5 ± 6.8,-2.23 ± 6.3,0.404 ± 0.99,-12.8 ± 2.9

Compound,robust z score of cell number ([1]; siRNA: siRpgrip1l),robust z score of cell number ([1]; siRNA: siScr),robust z score of cilia incidence [2],robust z score of cilia incidence [3]
COc1ccc(/C=C/C(=O)Nc2ccccc2C(=O)O)cc1OC [Tranilast],-27.9 ± 22,-8.28 ± 2.2,0.267 ± 1.2,-22.79 ± 0.076
Cc1cc(NC(=O)Nc2ccc(N(C)C)cc2)c2cc(F)cc(F)c2n1,-23.3 ± 16,-26.4 ± 16,-25.7 ± 21,-33.3 ± 5.7
CNC(=O)[C@H]1O[C@@H](n2cnc3c(NCc4cccc(I)c4)nc(Cl)nc32)[C@H](O)[C@@H]1O,-42.1 ± 28,-15 ± 1.3,-6.43 ± 5.7,-23.9 ± 0.4
CC(C)(C)[N+]([O-])=Cc1ccc(S(=O)(=O)O)cc1S(=O)(=O)O,0.0862 ± 5.3,-0.524 ± 3.1,-1.49 ± 0.79,-4.51 ± 2.6
CCOC(=O)C1=C[C@]2(CC)CCCN3CCc4c(n1c1ccccc41)[C@@H]32 [Vinpocetine],-7 ± 2.2,0.499 ± 0.84,-9.74 ± 1.6,-20.4 ± 1.6
N=C(N)N/N=C/c1c(Cl)cccc1Cl [Guanabenz acetate],-5.01 ± 0.8,-0.82 ± 2.2,-0.264 ± 2.8,-8.07 ± 1.3
"FC(F)(F)c1cc(COC2CCCNC2c2ccccc2)cc(C(F)(F)F)c1 [L-733,060 hydrochloride]",-57.2 ± 46,-22.8 ± 5,-23.6 ± 0.19,-40.9 ± 9.6
COc1ccc2[nH]c(I)c(CCNC(C)=O)c2c1 [2-Iodomelatonin],-3.01 ± 2.8,1.27 ± 3.9,2.86 ± 0.84,-4.59 ± 2.8
CC(C)(C)c1ccc(S(=O)(=O)/C=C/C#N)cc1,-54.8 ± 55,-27.4 ± 22,-9.89 ± 3.5,-17.2 ± 12
CC(=N)NCCCC[C@H](N)C(=O)O [L-NIL hydrochloride],-7.08 ± 7.4,-0.068 ± 0.61,0.627 ± 0.27,-13.6 ± 0.83
O=C(O)C(=O)O.[NH-][C@@H]1CCCC[C@H]1[NH-].[Pt+2] [Oxaliplatin],-23.6 ± 8.4,-96.9 ± 77,-16.4 ± 0.79,-27.56 ± 0.25
N=C(CC(O)COc1ccccc1-c1ccccc1)N1CCCCC1 (stereo not given),-23.3 ± 1.6,-24.1 ± 12,-22.1 ± 12,-20.7 ± 3.2
NC(=O)c1ccc2[nH]ccc2c1,-6.58 ± 3.9,2.35 ± 2.2,1.83 ± 0.45,-8.53 ± 5.1
Nc1c(Br)cc(Br)cc1CN[C@H]1CC[C@H](O)CC1 [Ambroxol hydrochloride],-9.43 ± 5.4,-4.54 ± 1.6,-12.5 ± 10,-18.4 ± 12
O=c1cc(-c2cccc3c2Sc2ccccc2S3)oc(N2CCOCC2)c1,-26.3 ± 25,-12.8 ± 11,-17.8 ± 4.4,-14.2 ± 4.9
Cc1cc(C)c(S(=O)(=O)Nc2cccc(C(F)(F)F)c2)c(C)c1,-43.3 ± 40,-43.9 ± 30,-121 ± 62,-121 ± 110
Oc1ccc(-c2c(-c3ccccc3)nn3c(C(F)(F)F)cc(C(F)(F)F)nc23)cc1,-32.4 ± 11,-138 ± 100,-65.1 ± 16,-57.7 ± 8.4
COC(=O)C(Cc1ccc(OCCn2c(=O)sc3cc(C(=O)c4ccccc4)ccc32)cc1)C(=O)OC,-51 ± 61,-0.603 ± 1.6,-0.0886 ± 0.24,-12.5 ± 2.5
COc1ccc(CN(CCN(C)C)c2ccccn2)cc1 [Mepyramine maleate],-0.938 ± 1.9,12.5 ± 16,1.49 ± 0.67,-6.69 ± 6.7
N=C(N)NC(=O)Cc1c(Cl)cccc1Cl [Guanfacine hydrochloride],-0.928 ± 2.2,-8.65 ± 3,-0.00581 ± 6.7,-12.2 ± 3.3
CCc1cc(Cl)c(OC)c(C(=O)NC[C@@H]2CCCN2CC)c1O [Eticlopride hydrochloride],-38.7 ± 34,-40.6 ± 26,-111 ± 53,-122 ± 110
Cn1cc(C(=O)OCC2CCN(CCNS(C)(=O)=O)CC2)c2ccccc21,-108 ± 61,-10.2 ± 3.8,-9.35 ± 7.6,-20.6 ± 8.2

# Entries of single compounds from above. Values in the order: robust z score of cell number ([1]; siRNA: siRpgrip1l)	robust z score of cell number ([1]; siRNA: siScr)	robust z score of cilia incidence [2]	robust z score of cilia incidence [3]
# CC1CCN=C(N)S1 (stereo not given) [AMT hydrochloride] is entered as -1.13 ± 2.8	-1.01 ± 4	-0.743 ± 1.5	-7.8 ± 0.34
# CCN(CC)CCOCCOC(=O)C1(c2ccccc2)CCCC1 [Carbetapentane citrate] is entered as -97.1 ± 82	-64.9 ± 40	-39.2 ± 2.9	-46.8 ± 24
# COc1ccc(/C=C/C(=O)Nc2ccccc2C(=O)O)cc1OC [Tranilast] is entered as -27.9 ± 22	-8.28 ± 2.2	0.267 ± 1.2	-22.79 ± 0.076
# CC(C)[C@H](CO)Nc1nc(Nc2cccc(Cl)c2)c2ncn(C(C)C)c2n1 [Purvalanol A] is entered as -185 ± 210	-43 ± 9.2	-13.4 ± 9.6	-297 ± 230

# Continued.

Compound,robust z score of cell number ([1]; siRNA: siRpgrip1l),robust z score of cell number ([1]; siRNA: siScr),robust z score of cilia incidence [2],robust z score of cilia incidence [3]
O=C(O)COCCN1CCN(C(c2ccccc2)c2ccc(Cl)cc2)CC1 (stereo not given) [Cetirizine dihydrochloride],-4.13 ± 0.51,-21.9 ± 18,-3 ± 0.76,-10.7 ± 0.83
COc1ccccc1OCCNCC(O)COc1cccc2[nH]c3ccccc3c12 (stereo not given) [Carvedilol],-29.2 ± 28,-13.3 ± 12,-22.5 ± 9.8,-22.5 ± 15
COC(=O)[C@H]1[C@H]2C[C@H]3c4[nH]c5ccccc5c4CCN3C[C@H]2CC[C@@H]1O [Rauwolscine hydrochloride],-3.95 ± 0.7,-3.05 ± 5.3,-2.3 ± 6.3,-6.55 ± 1.9
O=C1CC2(CCCC2)CC(=O)N1CCCCN1CCN(c2ncccn2)CC1 [Buspirone hydrochloride],-2.72 ± 1.6,-5.43 ± 0.79,-3.33 ± 3.4,-12.7 ± 4.3
O=C1NN(C(=O)Nc2ccc(Br)cc2)[C@@H](c2ccccc2)[C@@H]1c1ccccc1,-98.9 ± 110,-23.1 ± 8.4,-2 ± 3.1,-236 ± 170
NC[C@@H]1O[C@H](C23CC4CC(CC(C4)C2)C3)Cc2c1ccc(O)c2O,-42.9 ± 39,-44.2 ± 29,-108 ± 78,-66.2 ± 46
N=C(N)SCCc1ccc(OCc2ccc([N+](=O)[O-])cc2)cc1 [KB-R7943 mesylate],-306 ± 220,-40.2 ± 9.1,-48.9 ± 11,-34.1 ± 10
O=C(NCCO[N+](=O)[O-])c1cccnc1 [Nicorandil],-0.0121 ± 0.65,-0.984 ± 0.96,-0.345 ± 0.58,-10.6 ± 4.9
"Nc1ncnc2c1nc(Br)n2[C@@H]1O[C@@H]2COP(=O)(O)O[C@H]2[C@H]1O [8-Bromo-cAMP, sodium salt]",-9.65 ± 5.4,-1 ± 0.46,0.829 ± 1,-15.1 ± 1.2
COc1ccc(CC(C)NCC(O)c2ccc(O)c(NC=O)c2)cc1 (stereo not given) [Formoterol hemifumarate],-26.6 ± 36,-0.548 ± 2.6,-1.62 ± 4,-138 ± 130
O=C(O)C1=CCCN(CCON=C(c2ccccc2)c2ccccc2)C1,-2.56 ± 1.8,-1.69 ± 2.5,1.76 ± 2.6,-12.1 ± 3.2
Cc1c(C(=O)NC2CCCCC2)sc2nc3ccc(N)cc3n12,-10.4 ± 5.9,-8.73 ± 1.2,-19 ± 19,-20.9 ± 12
Cc1nc2c(OCc3ccccc3)cccn2c1CC#N,-39.8 ± 50,-1.15 ± 3.1,0.524 ± 0.61,-6.21 ± 1.7
CS(=O)(=O)Nc1ccc([N+](=O)[O-])cc1Oc1ccccc1 [Nimesulide],-28.5 ± 35,-11.1 ± 4.2,4.96 ± 3.3,-11.4 ± 1.9
CC(=O)NCCc1c(Cc2ccccc2)[nH]c2ccccc12 [Luzindole],-2.95 ± 0.25,-4.35 ± 8.4,-0.704 ± 3.8,-8.44 ± 2.9
COc1ccc(-n2[nH]c3c4c(ncc3c2=O)CCCCC4)cc1,-2.79 ± 4,-2.33 ± 1.4,0.352 ± 1.1,-6.9 ± 5
NC(=O)c1ccc(-c2nc(-c3ccccn3)c(-c3ccc4c(c3)OCO4)[nH]2)cc1,-28.1 ± 29,-7.33 ± 4.1,-6.35 ± 4.2,-188 ± 92
CN1CCN(CCc2ccc(Cl)c(Cl)c2)CC1 [BD 1063 dihydrochloride],-27.37 ± 0.21,-25.9 ± 14,-40.8 ± 8.6,-28.3 ± 5.6
Clc1ccc(-c2nc3sccn3c2/C=N/OCc2ccc(Cl)c(Cl)c2)cc1,-7.53 ± 7.4,-2.68 ± 7.3,0.249 ± 0.91,-5.69 ± 3.4
Clc1ccc2nsnc2c1NC1=NCCN1 [Tizanidine hydrochloride],-36.5 ± 45,-2.08 ± 3.5,1.44 ± 1.1,-6.09 ± 0.78
O=C(NC(NC(=S)Nc1ccc(F)c([N+](=O)[O-])c1)C(Cl)(Cl)Cl)C(c1ccccc1)c1ccccc1 (stereo not given),-32.9 ± 10,-144 ± 110,-67 ± 18,-53.8 ± 5.9

# — the supplement of paper PMC12009310
